Measured values reported in article PMC6003198.
Results are given in words; binding and its absence hold for the method and conditions named. Binding seen in cells or lysates may run through a third protein. Binding calls can cover weak binding; strength is not graded here.

Chains of the proteins cited; added tags and fusions are not shown. Lines headed by an entry give the natural chain unless they say otherwise; changes in a name come on top. Residues count along the entry.
UniProt P38647, residues 47-679: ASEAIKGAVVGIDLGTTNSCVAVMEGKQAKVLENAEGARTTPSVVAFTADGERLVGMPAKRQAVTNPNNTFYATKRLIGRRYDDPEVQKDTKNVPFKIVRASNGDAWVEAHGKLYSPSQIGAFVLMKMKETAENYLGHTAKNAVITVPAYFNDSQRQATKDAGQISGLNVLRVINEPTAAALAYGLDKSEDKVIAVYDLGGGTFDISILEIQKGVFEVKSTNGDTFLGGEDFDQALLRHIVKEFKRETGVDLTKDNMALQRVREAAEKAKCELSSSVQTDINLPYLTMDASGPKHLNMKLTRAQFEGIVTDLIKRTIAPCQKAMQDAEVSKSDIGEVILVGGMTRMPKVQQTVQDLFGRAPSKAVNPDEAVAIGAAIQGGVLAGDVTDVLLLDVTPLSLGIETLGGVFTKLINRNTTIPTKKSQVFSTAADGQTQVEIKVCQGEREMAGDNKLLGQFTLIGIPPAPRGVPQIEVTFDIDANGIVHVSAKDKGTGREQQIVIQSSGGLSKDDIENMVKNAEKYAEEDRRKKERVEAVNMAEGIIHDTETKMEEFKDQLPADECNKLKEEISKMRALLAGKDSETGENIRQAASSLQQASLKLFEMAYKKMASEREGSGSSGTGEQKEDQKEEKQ
UniProt Q60932: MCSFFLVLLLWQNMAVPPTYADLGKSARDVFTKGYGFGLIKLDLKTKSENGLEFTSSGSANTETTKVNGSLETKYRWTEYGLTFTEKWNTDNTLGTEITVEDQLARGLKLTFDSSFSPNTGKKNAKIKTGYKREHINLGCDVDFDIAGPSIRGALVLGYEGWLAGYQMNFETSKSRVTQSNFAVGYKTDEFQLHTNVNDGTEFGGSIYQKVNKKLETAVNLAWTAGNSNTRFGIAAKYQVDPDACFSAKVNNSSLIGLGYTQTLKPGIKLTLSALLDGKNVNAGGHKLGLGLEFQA

Molecular target: glucose-regulated protein 75 (mouse (endogenous in cultured mouse podocytes)) (UniProt P38647)
Assay: co-IP; anti-Grp75 antibody (D13H4) immobilised on AminoLink Plus Coupling Resin, incubated overnight with lysates of cultured mouse podocytes (control, ADR-treated or Ang II-treated); eluate analysed by western blotting; normal rabbit IgG as negative control

- binding: binds
Substance: voltage-dependent anion channel 1 (from UniProt Q60932)
